Experimental data as given in US20100009920A1, “TTK AS TUMOR MARKER AND THERAPEUTIC TARGET FOR LUNG CANCER” (priority 2006, published 2010).
No constants are given. Whether binding was seen depends on the method and setting. In cells and extracts the contact can be indirect. Some entries that bind do so weakly or less than the wild type.

How the values were obtained:
[1] = biological target: Epidermal growth factor receptor (endogenous, A549 lung cancer cells) (human) (UniProt P00533); assay: co-immunoprecipitation with anti-TTK antibodies from A549 cell extracts, without or with EGF (100 nM); western blot for endogenous EGFR (FIG. 4b legend)
[2] = biological target: Epidermal growth factor receptor (endogenous, A549 lung cancer cells) (human) (UniProt P00533); assay: co-immunoprecipitation with anti-TTK antibodies from A549 cell extracts, without or with EGF (100 nM); western blot for endogenous EGFR

binding [1]: binds
binding [2]: binds
B1: TTK protein kinase (endogenous, A549 lung cancer cells) (enzyme)
chain: MESEDLSGRELTIDSIMNKVRDIKNKFKNEDLTDELSLNKISADTTDNSGTVNQIMMMANNPEDWLSLLLKLEKNSVPLSDALLNKLIGRYSQAIEALPPDKYGQNESFARIQVRFAELKAIQEPDDARDYFQMARANCKKFAFVHISFAQFELSQGNVKKSKQLLQKAVERGAVPLEMLEIALRNLNLQKKQLLSEEEKKNLSASTVLTAQESFSGSLGHLQNRNNSCDSRGQTTKARFLYGENMPPQDAEIGYRNSLRQTNKTKQSCPFGRVPVNLLNSPDCDVKTDDSVVPCFMKRQTSRSECRDLVVPGSKPSGNDSCELRNLKSVQNSHFKEPLVSDEKSSELIITDSITLKNKTESSLLAKLEETKEYQEPEVPESNQKQWQSKRKSECINQNPAASSNHWQIPELARKVNTEQKHTTFEQPVFSVSKQSPPISTSKWFDPKSICKTPSSNTLDDYMSCFRTPVVKNDFPPACQLSTPYGQPACFQQQQHQILATPLQNLQVLASSSANECISVKGRIYSILKQIGSGGSSKVFQVLNEKKQIYAIKYVNLEEADNQTLDSYRNEIAYLNKLQQHSDKIIRLYDYEITDQYIYMVMECGNIDLNSWLKKKKSIDPWERKSYWKNMLEAVHTIHQHGIVHSDLKPANFLIVDGMLKLIDFGIANQMQPDTTSVVKDSQVGTVNYMPPEAIKDMSSSRENGKSKSKISPKSDVWSLGCILYYMTYGKTPFQQIINQISKLHAIIDPNHEIEFPDIPEKDLQDVLKCCLKRDPKQRISIPELLAHPYVQIQTHPVNQMAKGTTEEMKYVLGQLVGLNSPNSILKAAKTLYEHYSGGESHNSSSSKTFEKKRGKK
